Reference: article doi:10.1101/2020.07.18.209973
These are yes or no findings as the source states them, for the method shown. Binding seen in cells or lysates may run through a third protein. A yes stands for co-enrichment or nearness to the bait. Other partners may have been found.

Target: P. berghei ICM1 tagged with HA3 (P. berghei)
Experiment: affinity purification with mass spectrometry

B1: P. berghei cGMP-dependent protein kinase (enzyme, UniProt A0A509AKL0 1-856)
chain: MDDDEIIPKKNHPSNERNKKKAILSHEDFTGEDSLMENHLELRDKLTEDIVTIKASLKNNLVCSTLNENEILALSNYMQFFVFKSGDMVIKQGEKGSYFFIINSGKFDVYVNDKKVKTLTKGSSFGEAALIHNTQRSATIKAGTNGTLWGVQRSTFRATLKQLSNRNFNENRSFIDSVSVFDMLTEAQKNMITNACVIQNFKPGETIVKQGDYGDVLYILKDGKATVYINDEEIRVLEKGSYFGERALLYDEPRSATIIAKEVTSCASICRKLLNVVLGNLQVVLFRNIMTEALQQSEIFKQISPDQLNDLADTAIVRDYPANYNILHKDKIKSVKYIIVLEGKVELFLDDESIGILTRGKSFGDQYVLNQKQKFKHTLKSLEVCKIALITESCLADCLGNNNIDASIDYNNKKSIIKKMYIFRYLTDKQCNLLIEAFKTTRYEEGDYIIQEGEVGSRFYIIKAGEVEIVKNNKRLRTLGKNDYFGERALIYDEPRTASVISTVNNLECWYVDKSVFLQIIEGPMLAHLEERIKMQDTKVEMSELLTERIIGRGTFGIVKLVLHEPTKIRYALKCVSKKSIIELNQQNNIKLEREITAENDHPFIIRLVRTFKDSKYFYFLTELVTGGELYDAIRKLGLLSRSQAQFYLGSIILAIEYLHERSIVYRDLKPENILLDKQGYVKLIDFGCAKKIHGRSYTLVGTPHYMAPEVILGKGYGCTVDIWAFGVCLYEFICGPLPFGNDQEDQLEIFRDILTGQLTFPDYVTDTDSINLIKRLLCRLPQGRIGCSINGFKDIKENSFFADFDWDRLAGRLLEPPLISKSETYAEDIDVKQIEQEEEDNANTEIDDENWDIDF
binding: binds
